Experimental data from the supplement of paper PMC7824004.
This is one part of the list. The data scatter; read single values as rough.

What follows are compounds tested on Candida albicans SN425 (assay: biofilm OD600 B-score; higher = more biofilm (less inhibition)). Conditions: 10 µM; assay detail: High-throughput adherence inhibition optical density biofilm assay with C. albicans SN425 in RPMI-1640/MOPS pH 7.0, 384-well plates. ….
Procedure: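 High-throughput adherence inhibition optical density biofilm assay with C. albicans SN425 in RPMI-1640/MOPS pH 7.0, 384-well plates. Compound (10 µM) was present only during the 90 min adherence step, then washed out, and the biofilm grew 24 h without compound. Biofilm was read as OD600 after removing the media. Scores are the difference from the mean in standard deviations and the plate B-score.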

Compound | biofilm OD600 B-score
CC(=O)Nc1nnc(SCC(=O)N2CCCCC2)s1 | 0.485
Cc1cc(NO)nc(-c2ccc(Br)cc2)n1 | -1.23
O=C(NC1CCCCCC1)c1cnccn1 | -3.19
O=C(O)C1C2C=CC(O2)C1C(=O)Nc1ccc2c(c1)OCO2 (stereo not given) | -2.41
Cc1ccc(C(NC(N)=O)c2ccccc2)cc1C (stereo not given) | -1.91
COc1ccc(C(=O)NCCc2ccc(F)cc2)c(OC)c1 | -1.31
COc1cc(C)c(S(=O)(=O)NCCN2CCOCC2)cc1C | -1.67
O=C(O)c1ccc(CNC(=O)C2CCCCC2C(=O)O)cc1 (stereo not given) | 0.621
O=C(CN1CCOCC1)N(c1ccccc1)c1ccccc1 | 0.427
CN(C)CC(C)(C)CNC1CC2CCC1C2 (stereo not given) | 0.602
COc1ccc(OCCN(C)Cc2ccccc2)cc1 | 2.66
CC1CCc2c(sc(NC(=O)c3cnccn3)c2C(N)=O)C1 (stereo not given) | 0.621
CC(C)C(=O)Nc1cccc(C(=O)Nc2cccc(O)c2)c1 | -1.44
C1=CC2CC1CC2CN1CCOCC1 (stereo not given) | -0.0277
COc1ccccc1Cc1nc(-c2ccncc2)no1 | -2.27
O=C(O)C1C2C=CC(C2)C1C(=O)NCC1CCCO1 (stereo not given) | -1.11
CC1=NCCN1S(=O)(=O)c1cc(C)c(Cl)cc1Cl | -0.394
COc1ccccc1/C=C/CN1CCN(C)CC1 | 0.238
O=C(NCc1ccncc1)C1CCN(C(=O)Cc2ccccc2)CC1 | -0.525
O=C(Nc1nncs1)c1ccc(Oc2ccccc2)cc1 | 4.7

Among those listed so far, these contain four or more nitrogen atoms.
Compound | biofilm OD600 B-score
CC(=O)Nc1nnc(SCC(=O)N2CCCCC2)s1 | 0.485
CC1CCc2c(sc(NC(=O)c3cnccn3)c2C(N)=O)C1 (stereo not given) | 0.621

Following part.

Compound | biofilm OD600 B-score
Cc1cc(Cl)ccc1OCC(O)CN1CCN(C)CC1 (stereo not given) | -0.92
CCOc1ccccc1C(=O)NC(C)COC (stereo not given) | 0.426
Cc1occc1C(=O)Nc1ccc(CC(=O)O)cc1 | -1.73
CN(C)c1nc(Nc2ccc(F)cc2)nc(-n2cccn2)n1 | 0.987
CCOc1ccc(OCCCn2cnc3ccccc3c2=O)cc1 | 2.37
O=S(=O)(NCCCN1CCOCC1)c1ccc(I)cc1 | 0.124
O=C(c1ccccc1C(=O)N1CCOCC1)N1CCOCC1 | -1.18
C=CCNCCOc1cccc(Br)c1 | 3.05
Cc1cc(C)c(NC(=O)CCCC(=O)O)c(C)c1 | -3.31
COc1ccc(Cc2nn[nH]n2)cc1OC | -2.46
CSc1cccc(NS(=O)(=O)c2ccc(C)cc2)c1 | 3.4
CCOc1ccccc1CN(C)C1CCN(C)CC1 | 0.759
CCOc1ccc(CN2CCC(O)CC2)cc1 | -0.0452
CC(C)c1ccc(CN2CCC(O)CC2)cc1 | 0.586
O=C(Nc1ccc2c(c1)OCCO2)c1ccc(CN2CCOCC2)cc1 | 0.111
CC(=O)Nc1ccc(-c2ccc(NC(C)=O)c(C)c2)cc1C | -3.17
CCC(C)c1ccccc1OCCCN1CCOCC1 (stereo not given) | 1.6
Cc1nnc(NS(=O)(=O)Cc2ccccc2)s1 | 1.32
O=C(c1ccco1)N1CCN(C(=O)N(c2ccccc2)c2ccccc2)CC1 | -0.499
O=C(Nc1ccc(Cl)cc1F)c1cnccn1 | 0.0218
